# Assay results taken from PubChem BioAssay AID901 (National Center for Advancing Translational Sciences (NCATS), 2007).
# The other results are listed elsewhere or left out. Further columns of the screen follow, without active or inactive calls. Most of these compounds were active or inconclusive in the main read-out, so they are no random draw. Potencies come from curve fits of mixed quality, noted in brackets.
# Experiment: qHTS Assay for Identifying the Cell-Membrane Permeable IMPase Inhibitors
# Conditions: CHO-M1 cells, IP1 accumulation, HTRF TR-FRET ratio; measured here: donor channel 620 nm AC50
row,SMILES,AC50
1,COc1cccc(CNC(=O)C(=O)NCC2CCCO2)c1 (centres undefined),"0.794 µM [falling, full curve]"
2,Cc1nc(C)c(C(=O)C2=C(O)C(=O)N(CCN(C)C)C2c2cccs2)s1 (centres undefined),"0.631 µM [rising, single point]"
3,CCCc1ccc(-c2cc(NC(=O)CSc3nnc(N)s3)n(-c3ccccc3)n2)cc1,"0.0316 µM [falling, full curve, poor fit]"
4,CCOc1cc(CNCc2cccs2)cc(Br)c1OC,"10 µM [rising, single point]"
5,O=C(NCc1ccco1)c1ccc(Cn2cc([N+](=O)[O-])cn2)o1,"0.316 µM [falling, full curve, poor fit]"
6,N#Cc1ccc(CSc2nnc(-c3ccccc3)n2Cc2ccco2)cc1,"1 µM [falling, full curve, poor fit]"
7,CCCS(=O)(=O)Nc1cc2c(cc1NCc1ccccc1)n(C)c(=O)n2C,"11.2 µM [falling, partial curve, poor fit]"
8,Cc1ccc(-c2nc3s/c(=C\c4ccco4)c(=O)n3n2)cc1,"0.0158 µM [rising, full curve, poor fit]"
9,CCO/C=C1/C(=O)N(C(C)=O)c2ccccc21,"0.158 µM [falling, full curve, poor fit]"
10,CCOC(=O)c1sc(=NC(=O)c2ccc(S(=O)(=O)N3CC(C)OC(C)C3)cc2)n(C)c1C (centres undefined),"5.01 µM [rising, single point]"
11,O=C(c1ccc(=O)oc1)N1CCOCC1,"5.01 µM [rising, partial curve]"
12,Cc1ccc(S(=O)(=O)NC(C)CCc2ccccc2)cc1 (centres undefined),"31.6 µM [rising, single point]"
13,Cc1cc(C(=O)COc2nncc3ccccc23)c(C)n1C,"0.01 µM [rising, partial curve, poor fit]"
14,CC(C)OCCCNC(=O)CNC(=O)c1cccs1,"3.98 µM [falling, partial curve]"
15,Cc1ccc2cc(C#N)c(SCC(=O)N3CCCc4ccccc43)nc2c1C,"2 µM [falling, partial curve, poor fit]"
16,CC(=O)OC(C(=O)NC1CCCCC1)c1ccc(C)cc1 (centres undefined),"31.6 µM [rising, single point]"
17,CC(=O)c1ccc(NC2=C(N3CCOCC3)C(=O)c3ccccc3C2=O)cc1,"12.6 µM [falling, single point]"
18,COc1ccc(C(=O)Nc2nc(-c3ccc(OC)cc3)c(-c3ccc([N+](=O)[O-])cc3)s2)cc1,"0.501 µM [rising, single point]"
19,COc1ccc(C(=O)Nc2nc3n(n2)C(c2ccc(Cl)cc2)C=C(c2ccccc2)N3)cc1OC (centres undefined),"28.2 µM [rising, single point]"

# Nothing new here: entries from further up.
row,SMILES,AC50
16,CC(=O)OC(C(=O)NC1CCCCC1)c1ccc(C)cc1 (centres undefined),"31.6 µM [rising, single point]"
17,CC(=O)c1ccc(NC2=C(N3CCOCC3)C(=O)c3ccccc3C2=O)cc1,"12.6 µM [falling, single point]"
